Test results published in patent US20040110684A1.
These are yes or no findings as the source states them, for the method shown. For some of these results: Binding seen in cells or lysates may run through a third protein. Some binding calls cover weakened binding; strength is not graded here. Each block holds one substance with its values, some of them ahead of it.

The chains behind the UniProt entries cited, without tags or fusion partners. Residues count along the entry.
UniProt P08238, residues 2-724: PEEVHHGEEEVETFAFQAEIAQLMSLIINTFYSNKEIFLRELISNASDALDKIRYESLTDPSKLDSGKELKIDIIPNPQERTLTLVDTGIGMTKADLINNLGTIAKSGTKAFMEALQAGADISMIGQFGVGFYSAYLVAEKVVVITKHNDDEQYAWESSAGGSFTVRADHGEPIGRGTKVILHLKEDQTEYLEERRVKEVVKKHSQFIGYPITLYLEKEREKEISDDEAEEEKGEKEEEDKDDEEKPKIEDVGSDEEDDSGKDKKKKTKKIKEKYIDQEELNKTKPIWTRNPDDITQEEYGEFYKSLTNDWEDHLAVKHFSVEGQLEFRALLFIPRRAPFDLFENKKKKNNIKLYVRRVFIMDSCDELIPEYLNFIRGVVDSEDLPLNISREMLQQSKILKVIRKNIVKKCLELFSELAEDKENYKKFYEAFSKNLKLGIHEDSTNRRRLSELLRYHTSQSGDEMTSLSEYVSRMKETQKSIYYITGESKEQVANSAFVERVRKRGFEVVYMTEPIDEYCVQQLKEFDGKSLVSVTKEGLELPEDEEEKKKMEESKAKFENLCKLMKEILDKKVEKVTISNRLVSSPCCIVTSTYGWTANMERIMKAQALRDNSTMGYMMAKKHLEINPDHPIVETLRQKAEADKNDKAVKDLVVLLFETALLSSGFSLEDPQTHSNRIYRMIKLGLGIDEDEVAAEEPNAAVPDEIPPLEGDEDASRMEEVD
UniProt P31749: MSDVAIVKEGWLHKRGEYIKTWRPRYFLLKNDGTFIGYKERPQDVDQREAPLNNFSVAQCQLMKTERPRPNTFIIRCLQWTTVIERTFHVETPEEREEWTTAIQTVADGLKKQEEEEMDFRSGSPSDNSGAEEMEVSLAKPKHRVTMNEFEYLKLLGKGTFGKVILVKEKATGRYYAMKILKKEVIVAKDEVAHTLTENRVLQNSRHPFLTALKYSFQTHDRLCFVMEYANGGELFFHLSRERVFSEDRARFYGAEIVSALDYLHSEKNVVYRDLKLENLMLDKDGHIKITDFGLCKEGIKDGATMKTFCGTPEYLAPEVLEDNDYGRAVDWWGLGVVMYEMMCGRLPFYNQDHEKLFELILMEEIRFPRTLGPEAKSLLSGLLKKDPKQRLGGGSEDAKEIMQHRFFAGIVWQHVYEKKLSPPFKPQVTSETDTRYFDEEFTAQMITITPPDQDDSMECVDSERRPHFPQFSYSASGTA

Assays:
[1] = molecular target: hsp90, endogenous, human umbilical vein endothelial cells (HUVECs) (human) (UniProt P08238); assay: co-IP, geldanamycin-treated HUVEC lysates (recap in the discussion of Example 4)
[2] = molecular target: T1, endothelial nitric oxide synthase (eNOS), endogenous, human umbilical vein endothelial cells (HUVECs) (human) (UniProt P29474); assay: eNOS IP, hsp90 immunoblot, HUVEC lysates (effect reversed by mevalonate)
T1 sequence (looked up): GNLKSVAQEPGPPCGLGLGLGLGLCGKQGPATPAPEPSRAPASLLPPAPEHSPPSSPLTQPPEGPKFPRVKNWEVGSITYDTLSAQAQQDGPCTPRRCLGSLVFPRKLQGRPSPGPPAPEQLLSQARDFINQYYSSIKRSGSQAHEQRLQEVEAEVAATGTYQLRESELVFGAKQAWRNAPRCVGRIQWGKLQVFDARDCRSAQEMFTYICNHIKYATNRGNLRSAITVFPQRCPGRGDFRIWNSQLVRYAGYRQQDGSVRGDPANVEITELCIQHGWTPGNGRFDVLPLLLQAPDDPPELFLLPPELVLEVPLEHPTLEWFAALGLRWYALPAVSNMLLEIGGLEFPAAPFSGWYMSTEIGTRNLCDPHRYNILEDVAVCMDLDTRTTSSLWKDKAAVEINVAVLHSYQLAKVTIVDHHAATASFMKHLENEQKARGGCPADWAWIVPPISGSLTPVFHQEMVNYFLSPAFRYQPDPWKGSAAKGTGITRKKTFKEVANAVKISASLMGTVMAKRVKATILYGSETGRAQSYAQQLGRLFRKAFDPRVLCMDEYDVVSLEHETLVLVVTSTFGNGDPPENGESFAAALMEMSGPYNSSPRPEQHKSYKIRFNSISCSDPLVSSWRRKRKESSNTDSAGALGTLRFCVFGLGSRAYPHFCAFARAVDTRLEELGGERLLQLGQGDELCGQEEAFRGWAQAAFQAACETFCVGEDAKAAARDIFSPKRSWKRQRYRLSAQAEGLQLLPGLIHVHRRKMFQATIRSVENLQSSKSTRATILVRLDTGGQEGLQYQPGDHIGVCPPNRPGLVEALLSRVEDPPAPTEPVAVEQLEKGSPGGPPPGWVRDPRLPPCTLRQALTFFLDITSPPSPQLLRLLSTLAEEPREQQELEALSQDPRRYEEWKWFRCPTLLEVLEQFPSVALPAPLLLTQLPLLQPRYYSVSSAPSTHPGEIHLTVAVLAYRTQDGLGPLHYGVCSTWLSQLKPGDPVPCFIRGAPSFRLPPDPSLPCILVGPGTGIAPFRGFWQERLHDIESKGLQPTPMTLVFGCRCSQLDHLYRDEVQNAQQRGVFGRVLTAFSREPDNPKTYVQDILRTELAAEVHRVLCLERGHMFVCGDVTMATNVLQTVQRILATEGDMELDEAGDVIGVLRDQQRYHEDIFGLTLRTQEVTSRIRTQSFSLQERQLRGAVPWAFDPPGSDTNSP

[3] = molecular target: T1, endothelial nitric oxide synthase (eNOS), endogenous, human umbilical vein endothelial cells (HUVECs) (human); assay: co-IP in CHAPS or Triton/molybdate lysis buffer, unstimulated HUVECs (data not shown)
[4] = molecular target: T1, endothelial nitric oxide synthase (eNOS), endogenous, human umbilical vein endothelial cells (HUVECs) (human); assay: hsp90 IP, eNOS immunoblot, with residual eNOS in the supernatant; HUVECs after 5 min VEGF
[5] = molecular target: T1, endothelial nitric oxide synthase (eNOS), endogenous, human umbilical vein endothelial cells (HUVECs) (human); assay: eNOS IP, hsp90 immunoblot, HUVEC lysates
[6] = molecular target: Akt, endogenous, human umbilical vein endothelial cells (HUVECs) (human) (UniProt P31749); assay: co-IP time course, HUVEC lysates
[7] = molecular target: T1, endothelial nitric oxide synthase (eNOS), endogenous, human umbilical vein endothelial cells (HUVECs) (human); assay: co-IP time course, HUVEC lysates
[8] = molecular target: T1, endothelial nitric oxide synthase (eNOS), endogenous, human umbilical vein endothelial cells (HUVECs) (human); assay: eNOS IP, hsp90 immunoblot, VEGF-treated HUVEC lysates
[9] = molecular target: T2, endothelial nitric oxide synthase (eNOS), endogenous, mouse cardiac microvascular endothelial cells (CMECs) (mouse) (UniProt P70313); assay: eNOS IP, hsp90 immunoblot, atorvastatin-treated CMEC lysates
T2 sequence (looked up): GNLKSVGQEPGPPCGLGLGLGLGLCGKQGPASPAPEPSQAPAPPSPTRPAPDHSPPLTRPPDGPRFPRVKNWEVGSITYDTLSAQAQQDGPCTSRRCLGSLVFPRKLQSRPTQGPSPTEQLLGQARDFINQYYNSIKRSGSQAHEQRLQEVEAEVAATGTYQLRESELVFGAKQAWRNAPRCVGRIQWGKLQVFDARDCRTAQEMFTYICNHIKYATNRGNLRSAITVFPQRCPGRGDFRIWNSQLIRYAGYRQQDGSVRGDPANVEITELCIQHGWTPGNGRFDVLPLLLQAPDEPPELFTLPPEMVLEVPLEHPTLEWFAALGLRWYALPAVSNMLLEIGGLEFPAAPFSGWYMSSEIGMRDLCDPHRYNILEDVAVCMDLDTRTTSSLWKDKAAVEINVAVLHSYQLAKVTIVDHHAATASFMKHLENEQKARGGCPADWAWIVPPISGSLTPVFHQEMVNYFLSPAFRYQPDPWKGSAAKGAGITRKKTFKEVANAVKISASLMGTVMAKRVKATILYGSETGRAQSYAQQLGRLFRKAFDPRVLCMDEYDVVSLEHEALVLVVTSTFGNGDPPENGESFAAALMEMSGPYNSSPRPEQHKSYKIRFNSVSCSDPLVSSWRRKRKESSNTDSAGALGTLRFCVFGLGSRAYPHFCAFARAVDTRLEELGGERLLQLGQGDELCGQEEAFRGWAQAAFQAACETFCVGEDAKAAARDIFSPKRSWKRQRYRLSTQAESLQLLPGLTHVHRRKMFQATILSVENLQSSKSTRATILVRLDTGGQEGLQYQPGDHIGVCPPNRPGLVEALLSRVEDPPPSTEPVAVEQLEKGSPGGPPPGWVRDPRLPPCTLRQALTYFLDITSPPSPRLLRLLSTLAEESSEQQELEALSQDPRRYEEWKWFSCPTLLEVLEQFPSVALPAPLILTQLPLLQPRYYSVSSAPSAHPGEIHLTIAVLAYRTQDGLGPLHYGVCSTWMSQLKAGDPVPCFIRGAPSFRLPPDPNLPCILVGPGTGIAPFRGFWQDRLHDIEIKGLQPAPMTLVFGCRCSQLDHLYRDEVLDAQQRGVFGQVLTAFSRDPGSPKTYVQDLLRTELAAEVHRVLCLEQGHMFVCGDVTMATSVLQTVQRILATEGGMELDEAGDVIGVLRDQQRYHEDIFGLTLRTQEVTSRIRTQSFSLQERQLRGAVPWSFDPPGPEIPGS

[10] = molecular target: T2, endothelial nitric oxide synthase (eNOS), endogenous, mouse cardiac microvascular endothelial cells (CMECs) (mouse); assay: eNOS IP, hsp90 immunoblot, lysates of ECs recovered from Matrigel (CMECs per paragraph 92)

binding [1]: binds
Substance: Akt, endogenous, human umbilical vein endothelial cells (HUVECs) (from UniProt P31749 1-480) (enzyme)

binding [2]: binds | binding [3]: binds | binding [4]: binds | binding [5]: binds | binding [6]: binds | binding [7]: binds | binding [8]: binds
Substance: hsp90, endogenous, human umbilical vein endothelial cells (HUVECs) (from UniProt P08238 2-724)

binding [9]: binds | binding [10]: binds
Substance: hsp90, endogenous, mouse cardiac microvascular endothelial cells (CMECs) (from UniProt Q71LX8 2-724)
